# Assay results taken from publication PMC10008536.
# Protein sequences, listed by entry. Tags and fused reporters are not part of them.
# UniProt P38398: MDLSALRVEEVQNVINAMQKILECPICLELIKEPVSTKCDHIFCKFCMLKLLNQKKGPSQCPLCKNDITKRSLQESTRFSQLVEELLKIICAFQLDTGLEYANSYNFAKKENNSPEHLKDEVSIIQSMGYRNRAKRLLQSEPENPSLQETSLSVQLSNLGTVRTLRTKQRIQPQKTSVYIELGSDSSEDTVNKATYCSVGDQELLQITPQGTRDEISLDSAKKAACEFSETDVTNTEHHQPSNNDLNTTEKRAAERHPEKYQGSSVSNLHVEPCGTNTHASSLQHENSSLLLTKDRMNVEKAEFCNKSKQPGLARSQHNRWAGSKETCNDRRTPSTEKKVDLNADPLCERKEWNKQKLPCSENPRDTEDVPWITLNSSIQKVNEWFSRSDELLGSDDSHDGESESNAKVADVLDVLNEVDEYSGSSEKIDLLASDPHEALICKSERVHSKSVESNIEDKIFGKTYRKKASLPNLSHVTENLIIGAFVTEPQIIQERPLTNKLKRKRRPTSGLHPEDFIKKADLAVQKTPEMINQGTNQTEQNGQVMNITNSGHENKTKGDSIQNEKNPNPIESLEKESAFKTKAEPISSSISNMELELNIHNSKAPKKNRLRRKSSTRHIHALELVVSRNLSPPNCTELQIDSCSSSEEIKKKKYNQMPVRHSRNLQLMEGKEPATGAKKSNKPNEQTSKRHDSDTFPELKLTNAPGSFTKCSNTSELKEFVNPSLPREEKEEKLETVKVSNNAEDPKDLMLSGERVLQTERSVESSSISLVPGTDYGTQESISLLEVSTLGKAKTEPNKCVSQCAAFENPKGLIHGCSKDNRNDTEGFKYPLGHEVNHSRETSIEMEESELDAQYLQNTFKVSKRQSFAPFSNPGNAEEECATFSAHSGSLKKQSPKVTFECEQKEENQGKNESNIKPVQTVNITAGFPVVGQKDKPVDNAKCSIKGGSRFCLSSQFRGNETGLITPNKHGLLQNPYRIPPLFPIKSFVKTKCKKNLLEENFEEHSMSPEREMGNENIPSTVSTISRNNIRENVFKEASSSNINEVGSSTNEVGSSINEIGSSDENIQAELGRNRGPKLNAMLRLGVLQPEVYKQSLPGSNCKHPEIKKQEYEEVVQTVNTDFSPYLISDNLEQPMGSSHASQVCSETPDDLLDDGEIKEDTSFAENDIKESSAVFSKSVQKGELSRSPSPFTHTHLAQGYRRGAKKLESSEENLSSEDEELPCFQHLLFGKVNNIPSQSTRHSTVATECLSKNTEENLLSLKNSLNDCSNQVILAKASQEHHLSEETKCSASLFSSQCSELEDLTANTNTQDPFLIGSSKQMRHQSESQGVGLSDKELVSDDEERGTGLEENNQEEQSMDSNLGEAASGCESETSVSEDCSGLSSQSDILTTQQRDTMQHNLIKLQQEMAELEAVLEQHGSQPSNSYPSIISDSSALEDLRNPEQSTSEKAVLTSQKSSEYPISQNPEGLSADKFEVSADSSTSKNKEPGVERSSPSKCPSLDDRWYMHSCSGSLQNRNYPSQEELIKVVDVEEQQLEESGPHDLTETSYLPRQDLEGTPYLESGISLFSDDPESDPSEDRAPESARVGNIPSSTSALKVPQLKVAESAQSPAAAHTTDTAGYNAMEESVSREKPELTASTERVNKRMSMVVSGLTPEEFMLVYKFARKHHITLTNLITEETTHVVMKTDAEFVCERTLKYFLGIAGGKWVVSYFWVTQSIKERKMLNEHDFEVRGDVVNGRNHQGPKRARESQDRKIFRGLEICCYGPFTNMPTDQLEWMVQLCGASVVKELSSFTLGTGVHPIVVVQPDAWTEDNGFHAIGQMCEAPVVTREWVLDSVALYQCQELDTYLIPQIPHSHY
# UniProt Q96LD4: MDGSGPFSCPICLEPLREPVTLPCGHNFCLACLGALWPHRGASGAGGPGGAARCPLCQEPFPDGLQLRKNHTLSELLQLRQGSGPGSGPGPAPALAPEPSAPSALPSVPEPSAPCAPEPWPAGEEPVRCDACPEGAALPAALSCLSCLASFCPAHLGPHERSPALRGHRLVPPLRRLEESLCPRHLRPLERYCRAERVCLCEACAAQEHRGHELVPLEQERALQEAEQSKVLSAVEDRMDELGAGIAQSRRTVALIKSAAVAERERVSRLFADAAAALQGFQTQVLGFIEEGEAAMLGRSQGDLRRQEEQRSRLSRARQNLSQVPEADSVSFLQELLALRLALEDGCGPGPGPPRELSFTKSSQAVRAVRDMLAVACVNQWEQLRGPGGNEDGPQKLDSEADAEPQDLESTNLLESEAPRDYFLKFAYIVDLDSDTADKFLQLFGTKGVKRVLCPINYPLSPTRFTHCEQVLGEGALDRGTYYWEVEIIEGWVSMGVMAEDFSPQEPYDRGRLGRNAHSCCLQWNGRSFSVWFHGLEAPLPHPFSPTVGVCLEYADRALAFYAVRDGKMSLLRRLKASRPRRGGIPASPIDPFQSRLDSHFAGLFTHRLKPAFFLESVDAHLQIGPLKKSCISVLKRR
# These are yes or no findings as the source states them, for the method shown. For part of these data: Binding seen in cells or lysates may run through a third protein. Some results given as binding are weak or reduced against the parent protein; the word gives no strength.
# Tests used:
# [1] = molecular target: Breast Cancer susceptibility gene 1 protein (BRCA1), endogenous (human (endogenous in triple-negative breast cancer cells)) (UniProt P38398); experiment: co-IP; endogenous TRIM47 and endogenous BRCA1 in triple-negative breast cancer cells; bait not told
# [2] = molecular target: Flag-tagged BRCA1 (human) (UniProt P38398); experiment: far-Western, overlay or dot blot; Flag-BRCA1 immunoprecipitated by Flag-tag affinity gel, resolved by SDS-PAGE, transferred to PVDF membrane; recombinant His-TRIM47 added at 1 ug/ml, 4 °C, 18 h; detected with anti-His or anti-Flag antibody; both purified
# [3] = molecular target: DNA damage repair protein rH2Ax (human (endogenous in triple-negative breast cancer cells)) (UniProt P16104); experiment: co-IP; reciprocal co-IP of endogenous rH2AX, BRCA1, BARD1 and RAD51 in triple-negative breast cancer cells; cells with overexpression of TRIM47, of the TRIM47 ring-domain mutant or of BRCA1
substance,measurement,setting,value
"tripartite motif-containing 47 (TRIM47), endogenous (from UniProt Q96LD4 1-638)",binding,[1],binds
His-tagged recombinant TRIM47 (from UniProt Q96LD4 1-638),binding,[2],binds
RAD51 (from UniProt Q06609 1-339),binding,[3],binds
